Source: PubChem BioAssay AID330 (DTP/NCI, 2004)
The list shows only some results of the screen, not a fair sample: it gathers tests that were run many times, whatever their T/C, doses with no T/C, and many T/C values between a quarter and a half above the control. Other doses and runs of a compound stand elsewhere. T/C is the treated group as % of the vehicle group. Some doses have a count of surviving animals in place of a T/C: the source files T/C as zero there, which appears to mark a toxic dose or a test without result, not a measured value. Some doses without a T/C left all or most animals alive at the check, yet need not have been tolerated: survival well below the control is almost never listed, so the zero probably covers shortened survival too. Counts of survivors are from the toxicity check (mostly the fifth day) where no day follows; animals may have died later. Schedule codes are those of the source, read here as Q, the interval in days (D) or hours (H), X, the number of doses. For survival time, the PubChem record calls one and a half times the control and up active, and a quarter to a half above the control has no call in these data; cut-offs in other NCI protocols can differ. Some T/C values are followed by the survivors on the day toxicity was checked, most often the fifth; where none is given, no animal had died by that day. Some entries hold several experiments; the results are listed from low to high. Signs of the kind (2×) give the number of equal values in this list.

Test system: P388 leukemia ip, CD2F1 mice, survival T/C
Experiment: NCI In Vivo Anticancer Drug Screen. Data for tumor model P388 Leukemia (intraperitoneal) in CD2F1 (CDF1) mice
Conditions: T/C endpoint: median survival time, higher T/C = longer survival

## CC(=O)Nc1ccc(S(=O)(=O)N/N=c2/sc3ccccc3n2C)cc1N
dose: 50.0 mg/kg/injection, schedule: Q01DX009 (ip), vehicle: saline
  survivor count: 6 of 6

## Nc1ncn(C2OC(CO)C(O)C2O)c(=O)n1 (centres undefined)
dose: 0.5 mg/kg/injection, schedule: Q01DX005 (ip), vehicle: water
  T/C: 136 % of control
dose: 2.0 mg/kg/injection, schedule: Q01DX005 (ip), vehicle: saline, evaluated on day 30
  T/C: 198 % of control
dose: 2.0 mg/kg/injection, schedule: Q01DX005 (ip), vehicle: saline, evaluated on day 35
  T/C: 167 and 181 % of control
dose: 2.0 mg/kg/injection, schedule: Q01DX005 (ip), vehicle: saline, evaluated on day 45
  T/C: 171 % of control
dose: 3.0 mg/kg/injection, schedule: Q01DX009 (ip), vehicle: saline, evaluated on day 5
  T/C: 246 % of control
dose: 3.0 mg/kg/injection, schedule: Q01DX009 (ip), vehicle: saline, evaluated on day 30
  T/C: 162 and 227 % of control
dose: 3.0 mg/kg/injection, schedule: Q01DX009 (ip), vehicle: saline, evaluated on day 60
  T/C: 273 % of control
dose: 4.0 mg/kg/injection, schedule: Q01DX005 (ip), vehicle: saline, evaluated on day 30
  T/C: 243 % of control
dose: 4.0 mg/kg/injection, schedule: Q01DX005 (ip), vehicle: saline, evaluated on day 35
  T/C: 220 [7 of 8 alive] and 235 % of control
dose: 4.0 mg/kg/injection, schedule: Q01DX005 (ip), vehicle: saline, evaluated on day 45
  T/C: 214 % of control
dose: 5.18 mg/kg/injection, schedule: Q04DX002 (ip), vehicle: saline
  T/C: 146 % of control
dose: 12.5 mg/kg/injection, schedule: Q01DX009 (ip), vehicle: saline
  survivor count: 5 of 6
dose: 16.0 mg/kg/injection, schedule: Q01DX005 (ip), vehicle: saline
  survivor count: 8 of 8
dose: 30.0 mg/kg/injection, schedule: Q01DX009 (ip), vehicle: saline, evaluated on day 30
  T/C: 262 % of control
dose: 30.0 mg/kg/injection, schedule: Q01DX009 (ip), vehicle: saline, evaluated on day 45
  T/C: 204, 235, 250, 260, 273 % of control
dose: 30.0 mg/kg/injection, schedule: Q01DX009 (ip), vehicle: saline, evaluated on day 60
  T/C: 226 [8 of 10 alive] and 262 % of control
dose: 44.0 mg/kg/injection, schedule: Q01DX009 (ip), vehicle: saline, evaluated on day 30
  T/C: 265 % of control
dose: 44.0 mg/kg/injection, schedule: Q01DX009 (ip), vehicle: saline, evaluated on day 45
  T/C: 216, 246, 266, 267, 269 % of control (2×)
dose: 44.0 mg/kg/injection, schedule: Q01DX009 (ip), vehicle: saline, evaluated on day 48
  T/C: 229 % of control
dose: 44.0 mg/kg/injection, schedule: Q01DX009 (ip), vehicle: saline, evaluated on day 60
  T/C: 217, 231, 286, 287 % of control
dose: 49.0 mg/kg/injection, schedule: Q01DX001 (ip), vehicle: saline
  T/C: 148 % of control
dose: 67.0 mg/kg/injection, schedule: Q01DX009 (ip), vehicle: saline, evaluated on day 30
  T/C: 278 % of control
dose: 67.0 mg/kg/injection, schedule: Q01DX009 (ip), vehicle: saline, evaluated on day 45
  T/C: 158, 248, 284, 289, 298, 301 % of control
dose: 67.0 mg/kg/injection, schedule: Q01DX009 (ip), vehicle: saline, evaluated on day 48
  T/C: 241 % of control
dose: 67.0 mg/kg/injection, schedule: Q01DX009 (ip), vehicle: saline, evaluated on day 60
  T/C: 240, 240 [9 of 10 alive], 278, 299 % of control
dose: 100.0 mg/kg/injection, schedule: Q01DX009 (ip), vehicle: saline, evaluated on day 30
  T/C: 131 and 292 % of control
dose: 100.0 mg/kg/injection, schedule: Q01DX009 (ip), vehicle: saline, evaluated on day 45
  T/C: 110, 214, 282, 298, 306, 314 % of control
dose: 100.0 mg/kg/injection, schedule: Q01DX009 (ip), vehicle: saline, evaluated on day 48
  T/C: 268 % of control
dose: 100.0 mg/kg/injection, schedule: Q01DX009 (ip), vehicle: saline, evaluated on day 60
  T/C: 271, 274, 310, 316 % of control
dose: 150.0 mg/kg/injection, schedule: Q01DX009 (ip), vehicle: saline, evaluated on day 30
  T/C: 275 % of control
dose: 150.0 mg/kg/injection, schedule: Q01DX009 (ip), vehicle: saline, evaluated on day 45
  T/C: 111, 141, 243, 302, 306, 312 % of control
dose: 150.0 mg/kg/injection, schedule: Q01DX009 (ip), vehicle: saline, evaluated on day 48
  T/C: 284 % of control
dose: 150.0 mg/kg/injection, schedule: Q01DX009 (ip), vehicle: saline, evaluated on day 60
  T/C: 272, 275, 302 % of control
